Reference: patent publication US4431742A, “Radioreceptor assay for benzodiazepines in saliva” (The United States of America as represented by the …, priority 1981, dated 1984)

Each compound was assayed on benzodiazepine receptor (fresh rat frontal cortex) (assay: lower limit of sensitivity of the saliva radioreceptor assay). Conditions: 100λ of two-fold diluted saliva.
Format: binding

SMILES	lower limit of sensitivity (7% inhibition of specific binding) [ng/mL]
CNC1=Nc2ccc(Cl)cc2C(c2ccccc2)=[N+]([O-])C1 [chlordiazepoxide]	1.50
CN1C(=O)CN=C(c2ccccc2)c2cc(Cl)ccc21 [diazepam]	0.14
O=C1CN=C(c2ccccc2)c2cc([N+](=O)[O-])ccc2N1 [nitrazepam]	0.28
O=C1Nc2ccc(Cl)cc2C(c2ccccc2)=NC1O (stereo not shown) [oxazepam]	2.87
